Results from patent publication US20180045715A1, “STRUCTURE AND FUNCTION OF THE SALICYCLIC ACID BINDING SITES ON HUMAN HMGB1 AND METHODS OF USE THEREOF FOR THE RATIONAL DESIGN OF BOTH SALICYCLIC ACID DERIVATIVES AND OTHER AGENTS THAT ALTER ANIMAL AND PLANT HMGBS ACTIVITIES” (Boyce Thompson Institute for Plant Research, Inc., priority 2015, published 2018).
Some of these results come from one statement about several compounds together. At least one compound was matched to its structure with a doubt left.

Biological target: T1, HMGB1 Box A domain (Homo sapiens, UniProt P09429)
T1 construct: (iii) Box A: residues 10-80; hexaHis (TEV-cleavable) (N, cleaved yes); made in house
T1 sequence (P09429 10-80): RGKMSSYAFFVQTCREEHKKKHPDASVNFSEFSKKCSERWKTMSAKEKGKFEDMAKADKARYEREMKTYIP
Test: 15N-1H HSQC titration for Kd measurement
Type: binding
Conditions: read-out: affinity (Kd) for Box A of HMGB1 as stated in definitions
Method: […] Samples were analyzed with and without SA or other candidate inhibitors at 25° C. Chemical shift perturbation studies were carried out using either a Bruker Avance 800 MHz Avance NMR system with 4-mm NMR tubes, or using a Bruker Avance 600 MHz NMR spectrometer equipped with a 1.7 mm micro cryoprobe. 1024 or 2048 complex points were acquired for each of 80 to 200 increments in the ^15N dimension with a recycle delay of 1 s. Each spectrum was typically acquired for 2-8 hrs. Chemical shift assignments were determined using a uniformly ^13C,^15N-enriched HMGB1-ΔC construct at 25° C. via traditional triple-resonance NMR experiments (Biamonti et al., 1994; Moseley et al., 2001) recorded on a Bruker 800 MHz NMR spectrometer equipped with a 5 mm cryoprobe. Disulfide oxidation studies were carried out using the ^15N-^1H SOFAST-HMQC NMR experiment (Schanda & Brutscher, 2005; Schanda et al., 2005; Zandarashvili et al., 2013).
NMR experiments were used to discover that ac3AESA binds to HMGB1 Box A domain of HMGB1 more tightly than SA itself. […] Chemical shift perturbations (CSPs) are defined as Δδppm=[(δHN*6.5)^2+δN^2]^1/2.

For `COc1cc(CCc2ccccc2)c(C(=O)O)c(O)c1C/C=C(\C)CCC=C(C)C` [amorfrutin B1], the Kd was < 10 mM.
